Data from patent publication US20050287612A1.
Results are given in words; binding and its absence hold for the method and conditions named. In cells and extracts the contact can be indirect. Some results given as binding are weak or reduced against the parent protein; the word gives no strength. Where a sequence is shown, tags or fusion partners need not be part of it.

Tests used:
[1] = molecular target: T1, full-length myc-tagged CARD-4 (human), Q9Y239; assay: co-immunoprecipitation from transfected HeLa cells (FIG. 4B); details: remark: other sources report otherwise
T1 chain: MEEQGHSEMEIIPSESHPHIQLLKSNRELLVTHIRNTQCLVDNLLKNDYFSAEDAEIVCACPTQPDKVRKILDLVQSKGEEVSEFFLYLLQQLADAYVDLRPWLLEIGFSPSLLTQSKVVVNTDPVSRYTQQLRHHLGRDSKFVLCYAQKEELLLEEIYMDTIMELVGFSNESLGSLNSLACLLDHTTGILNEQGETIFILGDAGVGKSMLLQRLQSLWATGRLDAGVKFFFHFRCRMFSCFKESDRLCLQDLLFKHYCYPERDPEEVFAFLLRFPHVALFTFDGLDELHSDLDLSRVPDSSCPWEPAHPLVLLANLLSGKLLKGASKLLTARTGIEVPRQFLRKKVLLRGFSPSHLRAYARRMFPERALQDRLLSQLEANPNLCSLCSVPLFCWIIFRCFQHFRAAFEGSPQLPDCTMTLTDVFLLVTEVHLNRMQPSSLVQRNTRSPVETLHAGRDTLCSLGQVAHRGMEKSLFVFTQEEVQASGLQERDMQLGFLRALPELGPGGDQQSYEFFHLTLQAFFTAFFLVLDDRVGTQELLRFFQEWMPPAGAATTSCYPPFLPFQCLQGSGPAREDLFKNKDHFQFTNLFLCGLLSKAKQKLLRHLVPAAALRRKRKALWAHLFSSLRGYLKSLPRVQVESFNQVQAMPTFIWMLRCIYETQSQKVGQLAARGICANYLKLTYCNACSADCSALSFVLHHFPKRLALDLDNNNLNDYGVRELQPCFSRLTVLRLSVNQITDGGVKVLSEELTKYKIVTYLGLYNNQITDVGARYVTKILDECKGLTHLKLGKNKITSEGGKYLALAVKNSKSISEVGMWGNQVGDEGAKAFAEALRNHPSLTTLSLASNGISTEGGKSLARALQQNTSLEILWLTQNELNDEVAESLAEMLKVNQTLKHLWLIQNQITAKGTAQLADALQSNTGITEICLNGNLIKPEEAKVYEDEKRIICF

[2] = molecular target: T1, full-length myc-tagged CARD-4 (human), …; assay: co-immunoprecipitation from transfected HeLa cells: anti-HA IP, Western blot for Myc-tagged CARD-4; details: remark: other sources report otherwise

B1: full-length hemagglutinin (HA) tagged CARD-4, Q9Y239 1-953 (protein, not shown: small tags and cut ends)
chain: T1 chain
Question: For B1, which binding [1] is on record?
Answer: binds

Question: And the binding [2]?
Answer: binds
